Values quoted from earlier work in patent publication US20220202682A1, “INCREASING THE STABILITY OF AGENTS FOR THE TREATMENT OF KERATINOUS MATERIAL” (Henkel AG & Co. KGaA, priority 2019, published 2022).

Details: 25° C.

solubility in water: more than 20 % by weight
SMILES: CCN(Cc1cccc(S(=O)(=O)[O-])c1)c1ccc(C(=C2C=CC(=[N+](CC)Cc3cccc(S(=O)(=O)[O-])c3)C=C2)c2ccccc2S(=O)(=O)[O-])cc1.[Na+].[Na+] [Acid Blue 9]
